Results as given in publication PMC8996536.
Results are given in words; binding and its absence hold for the method and conditions named. Binding seen in cells or lysates may run through a third protein. Here binding means that the protein was enriched with, or labelled near, the bait; the list need not be complete.

Experiments:
Assay in all cases: affinity purification with mass spectrometry; biotinylated unmodified or mono/di/tri-methyl-lysine YBX1-K264 peptides incubated with A549 cell lysates; bound proteins analysed by LC-MS/MS; only the target purified
[1] = target: T1, biotinylated di-methyl-lysine (YBX1-K264) peptide
T1 sequence (peptide, di-methyl-lysine at K264; biotin (position not stated)): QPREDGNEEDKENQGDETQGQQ

[2] = target: T2, biotinylated mono-methyl-lysine (YBX1-K264) peptide
T2 sequence (peptide, mono-methyl-lysine at K264; biotin (position not stated)): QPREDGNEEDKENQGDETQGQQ

[3] = target: T3, biotinylated tri-methyl-lysine (YBX1-K264) peptide
T3 sequence (peptide, tri-methyl-lysine at K264; biotin (position not stated)): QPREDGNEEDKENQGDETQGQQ

Measured: binding

B1: SET domain containing 3 (enzyme, UniProt Q86TU7 1-594)
chain: MGKKSRVKTQKSGTGATATVSPKEILNLTSELLQKCSSPAPGPGKEWEEYVQIRTLVEKIRKKQKGLSVTFDGKREDYFPDLMKWASENGASVEGFEMVNFKEEGFGLRATRDIKAEELFLWVPRKLLMTVESAKNSVLGPLYSQDRILQAMGNIALAFHLLCERASPNSFWQPYIQTLPSEYDTPLYFEEDEVRYLQSTQAIHDVFSQYKNTARQYAYFYKVIQTHPHANKLPLKDSFTYEDYRWAVSSVMTRQNQIPTEDGSRVTLALIPLWDMCNHTNGLITTGYNLEDDRCECVALQDFRAGEQIYIFYGTRSNAEFVIHSGFFFDNNSHDRVKIKLGVSKSDRLYAMKAEVLARAGIPTSSVFALHFTEPPISAQLLAFLRVFCMTEEELKEHLLGDSAIDRIFTLGNSEFPVSWDNEVKLWTFLEDRASLLLKTYKTTIEEDKSVLKNHDLSVRAKMAIKLRLGEKEILEKAVKSAAVNREYYRQQMEEKAPLPKYEESNLGLLESSVGDSRLPLVLRNLEEEAGVQDALNIREAISKAKATENGLVNGENSIPNGTRSENESLNQESKRAVEDAKGSSSDSTAGVKE
binds: all assays above

B2: METTL13 (enzyme, UniProt Q8N6R0 1-699)
chain: MNLLPKSSREFGSVDYWEKFFQQRGKKAFEWYGTYLELCGVLHKYIKPREKVLVIGCGNSELSEQLYDVGYRDIVNIDISEVVIKQMKECNATRRPQMSFLKMDMTQMEFPDASFQVVLDKGTLDAVLTDEEEKTLQQVDRMLAEVGRVLQVGGRYLCISLAQAHILKKAVGHFSREGWMVRVHQVANSQDQVLEAEPQFSLPVFAFIMTKFRPVPGSALQIFELCAQEQRKPVRLESAERLAEAVQERQQYAWLCSQLRRKARLGSVSLDLCDGDTGEPRYTLHVVDSPTVKPSRDNHFAIFIIPQGRETEWLFGMDEGRKQLAASAGFRRLITVALHRGQQYESMDHIQAELSARVMELAPAGMPTQQQVPFLSVGGDIGVRTVQHQDCSPLSGDYVIEDVQGDDKRYFRRLIFLSNRNVVQSEARLLKDVSHKAQKKRKKDRKKQRPADAEDLPAAPGQSIDKSYLCCEHHKAMIAGLALLRNPELLLEIPLALLVVGLGGGSLPLFVHDHFPKSCIDAVEIDPSMLEVATQWFGFSQSDRMKVHIADGLDYIASLAGGGEARPCYDVIMFDVDSKDPTLGMSCPPPAFVEQSFLQKVKSILTPEGVFILNLVCRDLGLKDSVLAGLKAVFPLLYVRRIEGEVNEILFCQLHPEQKLATPELLETAQALERTLRKPGRGWDDTYVLSDMLKTVKIV
binds: all assays above

B3: TRMT112 (protein, UniProt Q9UI30 1-125)
chain: MKLLTHNLLSSHVRGVGSRGFPLRLQATEVRICPVEFNPNFVARMIPKVEWSAFLEAADNLRLIQVPKGPVEGYEENEEFLRTMHHLLLEVEVIEGTLQCPESGRMFPISRGIPNMLLSEEETES
binds: all assays above
